From the supplement of paper PMC4604168 (melanoma cell lines)
The list shows a part of the results. Repeats are few or missing, and single values can be far off.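 The apoptosis fraction was the count of cleaved-PARP antibody-stained nuclei relative to all DNA-stained nuclei, imaged in 1,536-well plates. Screening doses were set so most cells survived, and baseline and induced cleaved-PARP levels vary greatly across cell lines.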

Legend:
Test in all cases: cleaved PARP positive nuclei fraction relative to DMSO control; melanoma cells; higher = more apoptosis
Details in all cases: library dose: low library concentration; 72 h
WM115 = tested on: WM115
WM1716 = tested on: WM1716
WM1745 = tested on: WM1745
WM3526 = tested on: WM3526
WM3619 = tested on: WM3619
WM451Lu = tested on: WM451Lu

| SMILES | cleaved PARP positive nuclei fraction (WM115) [%] | cleaved PARP positive nuclei fraction (WM1716) [%] | cleaved PARP positive nuclei fraction (WM1745) [%] | cleaved PARP positive nuclei fraction (WM3526) [%] | cleaved PARP positive nuclei fraction (WM3619) [%] | cleaved PARP positive nuclei fraction (WM451Lu) [%] |
| --- | --- | --- | --- | --- | --- | --- |
| O=C(/C=C/c1cccnc1)NCCCCC1CCN(C(=O)c2ccccc2)CC1 + Cc1nc(Nc2ncc(C(=O)Nc3c(C)cccc3Cl)s2)cc(N2CCN(CCO)CC2)n1 [dasatanib] (first compound 0.01 µM, partner dose 0.004 µM) | 95.2 | 109 | 125 | 97 | 115 | 321 |
| O=C(Nc1cc(C(F)(F)F)cc(C(F)(F)F)c1)c1cc(Cl)ccc1O + O=S(=O)(c1ccccc1)N(CC(F)(F)F)c1ccc(C(O)(C(F)(F)F)C(F)(F)F)cc1 [T0901317] (first compound 0.016 µM, partner dose 1.4 µM) | 29.6 | 48.7 | 106 | 143 | 76.5 | 431 |
| O=C(Nc1cc(C(F)(F)F)cc(C(F)(F)F)c1)c1cc(Cl)ccc1O + CCCCCCCCCCCC1=C(O)C(=O)C=C(O)C1=O [Embelin] (first compound 0.016 µM, partner dose 1.2 µM) | 114 | 218 | 90.1 | 49.4 | 90.8 | 244 |
| Cc1ccc(Nc2nccc(N(C)c3ccc4c(C)n(C)nc4c3)n2)cc1S(N)(=O)=O [Pazopanib] + COc1cc(Nc2ncc(F)c(Nc3ccc4c(n3)NC(=O)C(C)(C)O4)n2)cc(OC)c1OC [Tamatinib] (first compound 0.4 µM, partner dose 0.4 µM) | 118 | 95.4 | 98.6 | 66.6 | 105 | 46.6 |
| CC[C@]1(O)C[C@H]2CN(CCc3c([nH]c4ccccc34)[C@@](C(=O)OC)(c3cc4c(cc3OC)N(C=O)[C@H]3[C@@](O)(C(=O)OC)[C@H](OC(C)=O)[C@]5(CC)C=CCN6CC[C@]43[C@@H]65)C2)C1 [vincristine] + N#Cc1c(O)c2c(-c3ccc(-c4ccccc4O)cc3)csc2[nH]c1=O [A769662] (first compound 0.0001 µM, partner dose 2 µM) | 1220 | 101 | 103 | 87.3 | 156 | 163 |
| CC[C@]1(O)C[C@H]2CN(CCc3c([nH]c4ccccc34)[C@@](C(=O)OC)(c3cc4c(cc3OC)N(C=O)[C@H]3[C@@](O)(C(=O)OC)[C@H](OC(C)=O)[C@]5(CC)C=CCN6CC[C@]43[C@@H]65)C2)C1 [vincristine] + COc1cc2c(Oc3ccc4[nH]c(C)cc4c3F)ncnc2cc1OCCCN1CCCC1 [cediranib] (first compound 0.0001 µM, partner dose 0.4 µM) | 222 | 185 | 77.2 | 353 | 90.4 | 252 |
| Cc1cn(-c2cc(NC(=O)c3ccc(C)c(Nc4nccc(-c5cccnc5)n4)c3)cc(C(F)(F)F)c2)cn1 [nilotinib] + NC(=O)Nc1cc(-c2cccc(F)c2)sc1C(=O)N[C@H]1CCCNC1 [AZD7762] (first compound 0.2 µM, partner dose 0.02 µM) | 185 | 91.1 | 104 | 73.8 | 238 | 105 |
| O=C(Nc1cc(C(F)(F)F)cc(C(F)(F)F)c1)c1cc(Cl)ccc1O + C=CCNC1=C2C[C@@H](C)C[C@H](OC)[C@H](O)[C@@H](C)/C=C(\C)[C@H](OC(N)=O)[C@@H](OC)/C=C\C=C(/C)C(=O)NC(=CC1=O)C2=O [Tanespimycin] (first compound 0.016 µM, partner dose 0.002 µM) | 86.4 | 107 | 115 | 42.5 | 97.4 | 142 |
| CC[C@]1(O)C[C@H]2CN(CCc3c([nH]c4ccccc34)[C@@](C(=O)OC)(c3cc4c(cc3OC)N(C=O)[C@H]3[C@@](O)(C(=O)OC)[C@H](OC(C)=O)[C@]5(CC)C=CCN6CC[C@]43[C@@H]65)C2)C1 [vincristine] + CS(=O)(=O)CCNCc1ccc(-c2ccc3ncnc(Nc4ccc(OCc5cccc(F)c5)c(Cl)c4)c3c2)o1 [lapatinib] (first compound 0.0001 µM, partner dose 0.8 µM) | 1750 | 153 | 113 | 440 | 384 | 52.6 |
| O=C(/C=C/c1cccnc1)NCCCCC1CCN(C(=O)c2ccccc2)CC1 + CO[C@H]1C[C@@H]2CC[C@@H](C)[C@@](O)(O2)C(=O)C(=O)N2CCCC[C@H]2C(=O)O[C@H]([C@H](C)C[C@@H]2CC[C@@H](OCCO)[C@H](OC)C2)CC(=O)[C@H](C)/C=C(\C)[C@@H](O)[C@@H](OC)C(=O)[C@H](C)C[C@H](C)/C=C/C=C/C=C/1C [everolimus] (first compound 0.01 µM, partner dose 0.02 µM) | 113 | 52.4 | 21 | 53.4 | 116 | 156 |
| COc1cc([C@@H]2c3cc4c(cc3[C@@H](O[C@@H]3O[C@@H]5CO[C@@H](C)O[C@H]5[C@H](O)[C@H]3O)[C@H]3COC(=O)[C@H]23)OCO4)cc(OC)c1O [etoposide] + COc1ccc(C2=N[C@@H](c3ccc(Cl)cc3)[C@@H](c3ccc(Cl)cc3)N2C(=O)N2CCNC(=O)C2)c(OC(C)C)c1 [Nutlin-3] (first compound 0.02 µM, partner dose 0.1 µM) | 93.3 | 44.1 | 96.3 | 70.1 | 102 | 52.3 |
| CC[C@]1(O)C[C@H]2CN(CCc3c([nH]c4ccccc34)[C@@](C(=O)OC)(c3cc4c(cc3OC)N(C=O)[C@H]3[C@@](O)(C(=O)OC)[C@H](OC(C)=O)[C@]5(CC)C=CCN6CC[C@]43[C@@H]65)C2)C1 [vincristine] + CN(NC(=O)CC(=O)NN(C)C(=S)c1ccccc1)C(=S)c1ccccc1 [STA4783] (first compound 0.0001 µM, partner dose 0.006 µM) | 3520 | 713 | 165 | 227 | 256 | 216 |
| N#CC[C@H](C1CCCC1)n1cc(-c2ncnc3[nH]ccc23)cn1 [ruxolitinib] + C[C@@H](N)c1ccc(C(=O)Nc2ccnc3[nH]ccc23)cc1 [RKI983] (first compound 1 µM, partner dose 0.4 µM) | 33.4 | 163 | 108 | 31.5 | 77.2 | 102 |
| CCCCCCCCCCCCCCCCCCOP(=O)([O-])OC1CC[N+](C)(C)CC1 [Perifosine] + CCN(CC)CCNC(=O)c1c(C)[nH]c(/C=C2\C(=O)Nc3ccc(F)cc32)c1C [sunitinib] (first compound 0.4 µM, partner dose 0.4 µM) | 211 | 79.1 | 98.6 | 218 | 149 | 62.1 |
| COc1cc([C@@H]2c3cc4c(cc3[C@@H](O[C@@H]3O[C@@H]5CO[C@@H](C)O[C@H]5[C@H](O)[C@H]3O)[C@H]3COC(=O)[C@H]23)OCO4)cc(OC)c1O [etoposide] + O=C1NC(=O)/C(=C/c2ccc(-c3ccc(F)cc3O)o2)S1 [AS252424] (first compound 0.02 µM, partner dose 1 µM) | 182 | 44.5 | 96.4 | 80.7 | 87 | 53.9 |
| Cc1cc(Nc2cc(N3CCN(C)CC3)nc(Sc3ccc(NC(=O)C4CC4)cc3)n2)n[nH]1 [Tozasertib] + COc1ccc(COc2ccc(Cc3cnc(N)nc3N)cc2OC)cc1 [GW2580] (first compound 0.006 µM, partner dose 1 µM) | 192 | 149 | 97.3 | 486 | 108 | 269 |
| Cc1cc(Nc2cc(N3CCN(C)CC3)nc(Sc3ccc(NC(=O)C4CC4)cc3)n2)n[nH]1 [Tozasertib] + CC(=O)c1c(C)c2cnc(Nc3ccc(N4CCNCC4)cn3)nc2n(C2CCCC2)c1=O [palbociclib] (first compound 0.006 µM, partner dose 0.04 µM) | 218 | 100 | 119 | 68.8 | 137 | 117 |
| COc1cc([C@@H]2c3cc4c(cc3[C@@H](O[C@@H]3O[C@@H]5CO[C@@H](C)O[C@H]5[C@H](O)[C@H]3O)[C@H]3COC(=O)[C@H]23)OCO4)cc(OC)c1O [etoposide] + CC(C)CCN1c2nc(Nc3cc(F)c(O)c(F)c3)ncc2N(C)C(=O)C1C [BID1870] (first compound 0.02 µM, partner dose 0.2 µM) | 122 | 99.3 | 90.3 | 45.6 | 106 | 102 |
| O=c1[nH]nc(Sc2ncc([N+](=O)[O-])s2)n1-c1ccc2c(c1)OCCO2 + O=C(O)[C@@H]1[O][Sb](=[O])([O][Sb]2(=[O])[O][C@H]([C@H](O)CO)[C@H](O)[C@H](C(=O)O)[O]2)[O][C@H]([C@H](O)CO)[C@@H]1O [stibogluconate] (first compound 0.2 µM, partner dose 2 µM) | 58.9 | 90.9 | 107 | 91.1 | 106 | 92.6 |
| Cc1cn(-c2cc(NC(=O)c3ccc(C)c(Nc4nccc(-c5cccnc5)n4)c3)cc(C(F)(F)F)c2)cn1 [nilotinib] + O=S(=O)(c1ccccc1)N(CC(F)(F)F)c1ccc(C(O)(C(F)(F)F)C(F)(F)F)cc1 [T0901317] (first compound 0.2 µM, partner dose 1.4 µM) | 181 | 308 | 116 | 355 | 100 | 103 |
| CC[C@]1(O)C[C@H]2CN(CCc3c([nH]c4ccccc34)[C@@](C(=O)OC)(c3cc4c(cc3OC)N(C=O)[C@H]3[C@@](O)(C(=O)OC)[C@H](OC(C)=O)[C@]5(CC)C=CCN6CC[C@]43[C@@H]65)C2)C1 [vincristine] + Cn1cc(/C=C2\C(=O)Nc3cccnc32)c2ccccc21 [GW441756] (first compound 0.0001 µM, partner dose 0.4 µM) | 493 | 70.5 | 97.4 | 105 | 98.8 | 84.9 |
| CCCCCCCCCCCCCCCCCCOP(=O)([O-])OC1CC[N+](C)(C)CC1 [Perifosine] + Oc1cc(-c2nc(-c3ccccc3)[nH]c2-c2ccncc2)ccc1Cl [L779450] (first compound 0.4 µM, partner dose 0.2 µM) | 92.9 | 70.9 | 104 | 92.2 | 123 | 35.5 |

Retrieved one by one from above (2):

| SMILES | cleaved PARP positive nuclei fraction (WM115) [%] | cleaved PARP positive nuclei fraction (WM1716) [%] | cleaved PARP positive nuclei fraction (WM1745) [%] | cleaved PARP positive nuclei fraction (WM3526) [%] | cleaved PARP positive nuclei fraction (WM3619) [%] | cleaved PARP positive nuclei fraction (WM451Lu) [%] |
| --- | --- | --- | --- | --- | --- | --- |
| CC[C@]1(O)C[C@H]2CN(CCc3c([nH]c4ccccc34)[C@@](C(=O)OC)(c3cc4c(cc3OC)N(C=O)[C@H]3[C@@](O)(C(=O)OC)[C@H](OC(C)=O)[C@]5(CC)C=CCN6CC[C@]43[C@@H]65)C2)C1 [vincristine] + CS(=O)(=O)CCNCc1ccc(-c2ccc3ncnc(Nc4ccc(OCc5cccc(F)c5)c(Cl)c4)c3c2)o1 [lapatinib] (first compound 0.0001 µM, partner dose 0.8 µM) | 1750 | 153 | 113 | 440 | 384 | 52.6 |
| COc1cc([C@@H]2c3cc4c(cc3[C@@H](O[C@@H]3O[C@@H]5CO[C@@H](C)O[C@H]5[C@H](O)[C@H]3O)[C@H]3COC(=O)[C@H]23)OCO4)cc(OC)c1O [etoposide] + COc1ccc(C2=N[C@@H](c3ccc(Cl)cc3)[C@@H](c3ccc(Cl)cc3)N2C(=O)N2CCNC(=O)C2)c(OC(C)C)c1 [Nutlin-3] (first compound 0.02 µM, partner dose 0.1 µM) | 93.3 | 44.1 | 96.3 | 70.1 | 102 | 52.3 |
